Assay results from patent publication US20220268780A1, “METHODS OF PREDICTING ENDOMETRIAL RECEPTIVITY” (HUDSON INSTITUTE OF MEDICAL RESEARCH, priority 2019, published 2022).

What was measured:
[1] = test system: human endometrial epithelial cells (HEECs); assay: LC-MS/MS analysis of plasma membrane-enriched proteins of HEECs; settings: for Total unique peptides, Samples 1: sample 1, proliferative phase; for Total unique peptides, Samples 2: sample 2, proliferative phase; for Total unique peptides, Samples 3: sample 3, proliferative phase
Ishikawa cells = assay: RNAseq of control and PCX-OE Ishikawa cells; format: cell-based, human; settings: RNAseq mRNA of the named gene; PCX-OE vs control Ishikawa cells; p<0.01, Log(2)FC>2 or <−2

Substance | Total unique peptides, Samples 1 [1] | Total unique peptides, Samples 2 [1] | Total unique peptides, Samples 3 [1] | Levels in PCX-OE compared to control cells (Ishikawa cells)
Myoferlin | 9 | 8 | 4 | –
Heat shock protein HSP 90-alpha | 18 | 23 | 10 | –
Integrin beta-1 | 9 | 11 | 12 | –
FGF2 | – | – | – | Down-regulated
Prostaglandin F2 receptor negative regulator | 5 | 6 | 3 | –
Talin-1 | 34 | 36 | 4 | –
Integrin alpha V protein | 7 | 2 | 8 | –
Mucin-1 | 1 | 1 | – | –
Alpha-enolase | 7 | 8 | 6 | –
Ezrin | 7 | 4 | 3 | –
Sodium/potassium-transporting ATPase subunit beta-3 | 3 | 1 | 2 | –
Integrin alpha-1 | 5 | 6 | 6 | –
Integrin alpha-6 | 9 | 8 | 9 | –
Integrin beta-3 | 5 | 2 | 7 | –
BMP4 | – | – | – | Down-regulated
IQGAP1 IQ motif containing GTPase activating protein 1 | 19 | 21 | 15 | –
DKK1 | – | – | – | Down-regulated
Trans-golgi network protein 2, isoform CRA | 1 | 1 | 1 | –
Neuroplastin | 3 | 1 | 1 | –
